In article PMC5082900 one finds binding data, which are given here for one substance.

Protein sequences, listed by entry. Tags and fused reporters are not part of them.
UniProt Q00987: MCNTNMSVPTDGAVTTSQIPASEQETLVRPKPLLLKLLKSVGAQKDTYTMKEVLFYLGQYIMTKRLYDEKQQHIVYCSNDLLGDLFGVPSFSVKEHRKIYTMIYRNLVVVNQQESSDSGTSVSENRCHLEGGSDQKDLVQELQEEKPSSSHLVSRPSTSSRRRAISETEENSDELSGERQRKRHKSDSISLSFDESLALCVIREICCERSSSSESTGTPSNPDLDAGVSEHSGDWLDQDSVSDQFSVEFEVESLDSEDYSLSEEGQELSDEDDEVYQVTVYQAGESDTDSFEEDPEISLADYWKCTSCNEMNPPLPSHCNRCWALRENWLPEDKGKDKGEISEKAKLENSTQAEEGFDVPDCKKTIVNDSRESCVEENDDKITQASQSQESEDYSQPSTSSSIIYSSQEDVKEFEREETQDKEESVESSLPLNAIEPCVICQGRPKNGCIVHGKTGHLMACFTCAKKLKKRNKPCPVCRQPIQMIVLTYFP

Results are given in words; binding and its absence hold for the method and conditions named. Binding seen in cells or lysates may run through a third protein. Some results given as binding are weak or reduced against the parent protein; the word gives no strength. For some assays here: Where a sequence is shown, tags or fusion partners need not be part of it.

Test [1] addresses T1, IRF-1^291 (IRF-1 mutant with the 34-aa COOH terminus deleted) (UniProt P10914).
T1 sequence: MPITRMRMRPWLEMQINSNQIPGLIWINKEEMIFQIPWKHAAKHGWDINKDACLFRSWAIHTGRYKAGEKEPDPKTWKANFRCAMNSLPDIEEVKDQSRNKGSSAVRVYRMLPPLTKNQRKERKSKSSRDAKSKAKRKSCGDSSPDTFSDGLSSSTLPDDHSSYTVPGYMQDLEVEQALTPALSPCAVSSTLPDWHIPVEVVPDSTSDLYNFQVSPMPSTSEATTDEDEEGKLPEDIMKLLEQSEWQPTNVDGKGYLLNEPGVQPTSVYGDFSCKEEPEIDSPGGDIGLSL
Put plainly: co-IP; whole-cell extracts (300 ug) of HEK293 cells cotransfected with Flag-Tat, GFP-HDM2 and IRF-1^291; polyclonal anti-IRF-1 antibody overnight at 4°C, then protein A/G-Sepharose; Tat and HDM2 detected by Western blot. Background: Immunoblotting shows a protein as a band on a membrane.

Test [2] addresses T2, Flag-tagged IRF-1 (interferon regulatory factor 1) (UniProt P10914).
T2 sequence: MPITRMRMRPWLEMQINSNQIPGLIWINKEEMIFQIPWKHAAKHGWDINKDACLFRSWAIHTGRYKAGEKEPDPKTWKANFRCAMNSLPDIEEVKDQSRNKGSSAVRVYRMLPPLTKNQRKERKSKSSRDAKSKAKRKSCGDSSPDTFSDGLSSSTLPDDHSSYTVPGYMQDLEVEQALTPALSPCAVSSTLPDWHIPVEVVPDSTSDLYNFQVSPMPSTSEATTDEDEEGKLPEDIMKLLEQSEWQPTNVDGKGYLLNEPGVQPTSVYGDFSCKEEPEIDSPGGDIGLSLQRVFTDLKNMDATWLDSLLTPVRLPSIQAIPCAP
Put plainly: co-IP; whole-cell extracts of HEK293 cells transfected with Flag-IRF-1 and Tat and/or GFP-HDM2; anti-Flag M2 resin or control IgG; blots with anti-Tat, anti-GFP, anti-IRF-1.

Regarding “GFP-tagged HDM2 (human double minute 2 protein) (from UniProt Q00987 1-491) (enzyme)”, the binding result in test [1] and in test [2] was “binds” each time.
